No constants are given. Whether binding was seen depends on the method and setting. Some entries that bind do so weakly or less than the wild type.

Chains of the proteins cited; added tags and fusions are not shown. Residues count along the entry.
UniProt Q61362, residues 30-389: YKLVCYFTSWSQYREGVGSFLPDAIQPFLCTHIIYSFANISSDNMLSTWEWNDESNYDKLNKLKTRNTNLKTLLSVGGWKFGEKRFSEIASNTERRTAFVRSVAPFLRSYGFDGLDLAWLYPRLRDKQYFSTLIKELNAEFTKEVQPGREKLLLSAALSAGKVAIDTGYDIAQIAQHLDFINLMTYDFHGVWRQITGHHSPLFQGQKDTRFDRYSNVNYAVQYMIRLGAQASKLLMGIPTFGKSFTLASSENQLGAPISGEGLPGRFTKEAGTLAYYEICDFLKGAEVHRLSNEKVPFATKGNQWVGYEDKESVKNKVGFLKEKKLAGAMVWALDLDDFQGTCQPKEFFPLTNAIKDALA

Experiment [1] has as its target mouse YKL-40 (mouse) (UniProt Q61362). The experiment in a line: ELISA with the Fab protein.
The target is the same in experiment [2]. In words: phage ELISA on immobilized mYKL-40 (30 ng per well), anti-M13-HRP. (In general: In an ELISA, binding on a coated surface is turned into a signal by an enzyme label.)

B1: 4E3-F2 (M3) Fab (Fab, V domains shown)
VH: QVQLVQSGAEVKKPGSSVKVSCKASGGTFSSYDIHWVRQAPGQGLEWMGIISPYLGITIYAQKFQGRVTITADESTSTAYMELSSLRSEDTAVYYCARRYFYYQSEAFDYWGQGTLVTVSS
VL: DIQMTQSPSSLSASVGDRVTITCRASQSISNYLNWYQQKPGKAPKLLIYAASTLQSGVPSRFSGSGSGTDFTLTISSLQPEDFATYYCQQSYSFPLTFGQGTKVEIK
notes: Fab from the Fab-II phage library; also called Fab protein of 4E3-F2 (M3)
Regarding B1, the binding entry with mouse YKL-40 (mouse) [1] and with mouse YKL-40 (mouse) [2] was “binds” each time.

Source of the values: US20220340649A1 (SENELIX, published 2022).
